No constants are given. Whether binding was seen depends on the method and setting. Binding seen in cells or lysates may run through a third protein. Some entries that bind do so weakly or less than the wild type. For some of these results: Where a sequence is shown, tags or fusion partners need not be part of it.
Columns and labels:
[1] = target: T1, SINAT2-FLAG (Arabidopsis thaliana) (UniProt Q9M2P4); assay: co-IP; anti-FLAG M2 agarose precipitated SINAT2-FLAG or SINAT5-FLAG from extracts of 2-week-old SINAT-FLAG CRY1-Myc plants; CRY1-Myc detected with anti-Myc; also after 6 h of dark or blue light (interaction stronger in the dark)
T1 sequence: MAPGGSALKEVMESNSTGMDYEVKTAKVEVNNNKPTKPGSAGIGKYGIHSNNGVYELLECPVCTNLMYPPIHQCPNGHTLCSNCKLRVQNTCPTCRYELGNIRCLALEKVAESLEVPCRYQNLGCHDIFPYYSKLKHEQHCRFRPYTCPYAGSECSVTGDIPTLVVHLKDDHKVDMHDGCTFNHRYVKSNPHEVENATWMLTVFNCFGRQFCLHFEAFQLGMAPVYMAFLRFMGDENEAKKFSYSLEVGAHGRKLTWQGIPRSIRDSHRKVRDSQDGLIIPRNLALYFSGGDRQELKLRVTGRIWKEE

[2] = target: T2, CRY1-C-GST (Arabidopsis thaliana) (UniProt Q43125); assay: pull-down; semi-in vivo pull-down: GST fusion pre-incubated with GST beads at 4°C for 1 h, incubated with total protein extract of 2-week-old SINAT2-FLAG or SINAT5-FLAG plants (100 mM Tris-HCl pH 7.5, 300 mM NaCl, 2 mM EDTA, 1% Triton X-100, 10% glycerol, 50 uM MG132); washed with 1x PBS, 0.1% Triton X-100; anti-FLAG blot; only the target purified
T2 sequence: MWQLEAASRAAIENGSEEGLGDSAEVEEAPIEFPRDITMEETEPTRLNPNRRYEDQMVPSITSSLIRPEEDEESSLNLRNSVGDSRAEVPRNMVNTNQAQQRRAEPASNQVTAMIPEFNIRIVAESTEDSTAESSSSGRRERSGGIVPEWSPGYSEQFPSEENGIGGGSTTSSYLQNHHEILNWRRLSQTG

phyB-C-GST = target: T3, phyB-C-GST (Arabidopsis thaliana, UniProt P14713 646-1172); assay: as above
T3 construct: phytochrome B (phyB), Arabidopsis thaliana, C-terminus, amino acids 646-1,172; Cloned into pGEX-4T-1; also called C-terminus of phytochrome B; source: E. coli BL21 (DE3) pLysS, purified (glutathione resin)
T3 sequence (looked up): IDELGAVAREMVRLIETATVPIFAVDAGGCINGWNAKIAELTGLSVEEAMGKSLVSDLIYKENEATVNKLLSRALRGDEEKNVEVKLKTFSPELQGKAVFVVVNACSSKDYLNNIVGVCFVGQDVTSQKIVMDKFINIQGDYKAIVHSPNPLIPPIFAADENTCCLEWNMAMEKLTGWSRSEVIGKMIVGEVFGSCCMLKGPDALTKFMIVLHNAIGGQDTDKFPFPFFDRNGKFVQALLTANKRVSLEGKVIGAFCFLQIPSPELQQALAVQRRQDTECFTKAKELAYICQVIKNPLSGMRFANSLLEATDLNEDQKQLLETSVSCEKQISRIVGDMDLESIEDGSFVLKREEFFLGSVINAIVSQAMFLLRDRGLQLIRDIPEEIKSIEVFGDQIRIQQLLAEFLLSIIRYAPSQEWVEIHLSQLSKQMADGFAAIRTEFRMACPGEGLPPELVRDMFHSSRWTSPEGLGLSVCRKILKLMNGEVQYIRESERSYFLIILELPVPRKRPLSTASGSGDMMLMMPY

phyB-N-GST = target: T4, phyB-N-GST (Arabidopsis thaliana, UniProt P14713 1-645); assay: as above
T4 construct: phytochrome B (phyB), Arabidopsis thaliana, N-terminus, amino acids 1-645; also called N-terminus of phytochrome B; source: E. coli, purified (glutathione resin)
T4 sequence (looked up): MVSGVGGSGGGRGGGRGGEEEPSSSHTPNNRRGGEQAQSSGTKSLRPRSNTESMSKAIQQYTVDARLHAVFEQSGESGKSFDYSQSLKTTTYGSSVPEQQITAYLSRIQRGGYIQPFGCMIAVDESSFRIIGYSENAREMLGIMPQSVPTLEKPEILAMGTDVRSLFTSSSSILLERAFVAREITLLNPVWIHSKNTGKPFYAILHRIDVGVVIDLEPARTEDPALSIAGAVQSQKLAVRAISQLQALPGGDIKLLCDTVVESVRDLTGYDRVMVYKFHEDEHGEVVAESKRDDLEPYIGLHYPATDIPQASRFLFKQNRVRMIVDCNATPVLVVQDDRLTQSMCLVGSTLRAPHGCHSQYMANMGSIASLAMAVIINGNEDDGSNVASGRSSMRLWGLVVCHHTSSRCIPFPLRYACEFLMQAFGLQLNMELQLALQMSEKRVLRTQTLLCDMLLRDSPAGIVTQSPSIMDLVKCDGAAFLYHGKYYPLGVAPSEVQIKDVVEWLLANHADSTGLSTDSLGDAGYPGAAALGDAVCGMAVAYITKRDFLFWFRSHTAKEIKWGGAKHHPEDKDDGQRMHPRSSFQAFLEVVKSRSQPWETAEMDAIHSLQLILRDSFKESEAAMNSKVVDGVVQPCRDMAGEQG

CRY1-N-GST = target: T5, CRY1-N-GST (Arabidopsis thaliana, UniProt Q43125 1-490); assay: as above
T5 construct: cryptochrome 1 (CRY1), Arabidopsis thaliana, N-terminus, amino acids 1-490; Cloned into pGEX-4T-1; also called N-terminus of cryptochrome 1; source: E. coli BL21 (DE3) pLysS, purified (glutathione resin)

[3] = target: phyB-GFP (Arabidopsis thaliana) (UniProt P14713); assay: co-IP; anti-GFP gel precipitated phyB-GFP from extracts of 2-week-old SINAT2-FLAG phyB-GFP or SINAT5-FLAG phyB-GFP plants; SINAT-FLAG detected with anti-FLAG
[4] = target: phyB fused to C-terminal YFP (pXY104-cYFP) (Arabidopsis thaliana) (UniProt P14713); assay: split reporter; BiFC: SINAT constructs fused to nYFP, phyB or CRY1 fused to cYFP, in N. benthamiana pavement cells after Agrobacterium infiltration; YFP by confocal microscopy
[5] = target: CRY1 fused to C-terminal YFP (pXY104-cYFP) (Arabidopsis thaliana) (UniProt Q43125); assay: as above

## CRY1-Myc (from UniProt Q43125 1-681)
[1]
  binding: binds

B1: SINAT2-His (natural protein, Arabidopsis thaliana, UniProt Q9M2P4 1-308, looked up)
chain: MAPGGSALKEVMESNSTGMDYEVKTAKVEVNNNKPTKPGSAGIGKYGIHSNNGVYELLECPVCTNLMYPPIHQCPNGHTLCSNCKLRVQNTCPTCRYELGNIRCLALEKVAESLEVPCRYQNLGCHDIFPYYSKLKHEQHCRFRPYTCPYAGSECSVTGDIPTLVVHLKDDHKVDMHDGCTFNHRYVKSNPHEVENATWMLTVFNCFGRQFCLHFEAFQLGMAPVYMAFLRFMGDENEAKKFSYSLEVGAHGRKLTWQGIPRSIRDSHRKVRDSQDGLIIPRNLALYFSGGDRQELKLRVTGRIWKEE
notes: SINAT2 (SINA of Arabidopsis thaliana 2), At3g58040; Printed both as SINAT2-His (pull-down) and His-SINAT2 (ubiquitination assay); also called His-SINAT2
[2]
  binding: binds
phyB-C-GST
  binding: binds
phyB-N-GST
  binding: binds
CRY1-N-GST
  binding: binds
[3]
  binding: binds

B2: SINAT2^C63S (BiFC construct) (protein, UniProt Q9M2P4 1-308)
chain: MAPGGSALKEVMESNSTGMDYEVKTAKVEVNNNKPTKPGSAGIGKYGIHSNNGVYELLECPVSTNLMYPPIHQCPNGHTLCSNCKLRVQNTCPTCRYELGNIRCLALEKVAESLEVPCRYQNLGCHDIFPYYSKLKHEQHCRFRPYTCPYAGSECSVTGDIPTLVVHLKDDHKVDMHDGCTFNHRYVKSNPHEVENATWMLTVFNCFGRQFCLHFEAFQLGMAPVYMAFLRFMGDENEAKKFSYSLEVGAHGRKLTWQGIPRSIRDSHRKVRDSQDGLIIPRNLALYFSGGDRQELKLRVTGRIWKEE
[4]
  binding: binds
[5]
  binding: binds

B3: SINAT4^C67S (BiFC construct) (protein, UniProt Q9STN8 1-327)
chain: METDSMECVSSTGNEIHQNGNGHQSYQFSSTKTHGGAAAAAVVTNIVGPTATAPATSVYELLECPVSTYSMYPPIHQCHNGHTLCSTCKVRVHNRCPTCRQELGDIRCLALEKVAESLELPCKFYNLGCPEIFPYYSKLKHESLCNFRPYSCPYAGSECGIVGDIPFLVAHLRDDHKVDMHAGSTFNHRYVKSNPREVENATWMLTVFHCFGQYFCLHFEAFQLGMGPVYMAFLRFMGDEEDARSYSYSLEVGGSGRKLTWEGTPRSIRDSHRKVRDSNDGLIIQRNMALFFSGGDRKELKLRVTGKIWKEQHSPDSGLSIPNLSSS
[4]
  binding: binds
[5]
  binding: binds
